Patent US20190382462A1, “METHODS AND COMPOSITIONS FOR TREATING HPA HYPERACTIVITY” (priority 2017, published 2019)
No constants are given. Whether binding was seen depends on the method and setting. Some results given as binding are weak or reduced against the parent protein; the word gives no strength. Sequences can lack the tags named with a protein.

Assays:
[1] = target: T1, Biotinylated CRF (corticotropin-releasing factor) (UniProt P06850); experiment: ELISA, biotinylated CRF on avidin-coated plate, detection with HRP-conjugated anti-hIgG or protein-A
T1 sequence (peptide, biotinylated (site not stated), looked up): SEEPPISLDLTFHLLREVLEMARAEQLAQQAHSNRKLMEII

[2] = target: T1, Biotinylated CRF (corticotropin-releasing factor); experiment: ELISA: biotinylated CRF (bCRF) immobilized on avidin-coated plate, bound CRFBP-Fc detected with HRP-anti-hIgG or HRP-protein A
[3] = target: T1, Biotinylated CRF (corticotropin-releasing factor); experiment: ELISA (FIG. 7)
[4] = target: T1, Biotinylated CRF (corticotropin-releasing factor); experiment: ELISA, biotinylated CRF on avidin-coated plate, detection with HRP-anti-hIgG or HRP-protein-A

Measured: binding

B1: CRFBP-Fc fusion protein composed of CRF-BP(25-322) fused to human IgG2 Fc (SEQ ID NO:23) (Fc fusion)
chain: YLELREAADYDPFLLFSANLKRELAGEQPYRRALRCLDMLSLQGQFTFTADRPQLHCAAFFISEPEEFITIHYDQVSIDCQGGDFLKVFDGWILKGEKFPSSQDHPLPSAERYIDFCESGLSRRSIRSSQNVAMIFFRVHEPGNGFTLTIKTDPNLFPCNVISQTPNGKFTLVVPHQHRNCSFSIIYPVVIKISDLTLGHVNGLQLKKSSAGCEGIGDFVELLGGTGLDPSKMTPLADLCYPFHGPAQMKVGCDNTVVRMVSSGKHVNRVTFEYRQLEPYELENPNGNSIGEFCLSGLGSGGGGSGGGGSGGGGSGGGGSGGGGSGGGGSRSVECPPCPAPPVAGPSVFLFPPKPKDTLMISRTPEVTCVVVDVSHEDPEVQFNWYVDGVEVHNAKTKPREEQFNSTFRVVSVLTVVHQDWLNGKEYKCKVSNKGLPAPIEKTISKTKGQPREPQVYTLPPSREEMTKNQVSLTCLVKGFYPSDIAVEWESNGQPENNYKTTPPMLDSDGSFFLYSKLTVDKSRWQQGNVFSCSVMHEALHNHYTQKSLSLSPGK
binds: [1] | [2] | [3] | [4]
